Results as given in patent US10471063B2, “Drug combination of PDE3/PDE4 inhibitor and muscarinic receptor antagonist” (VERONA PHARMA PLC, priority 2013, dated 2019).

System: human isolated bronchial rings
Assay: Relaxation of human isolated bronchial rings pre-contracted with acetylcholine (EC70); synergy analysis (Bliss Independence, Berenbaum)
Format: cell-based
Conditions: 4 parameter logistic fit; mean±SD, n=5
Excerpt: In the laboratory, airways were dissected from connective and alveolar tissues. Then, segmental bronchi were isolated and stored overnight in KH buffer solution at refrigeration temperature. […] Bronchial rings were mounted on hooks in the organ baths where one hook was attached with threaded to a stationary rod and the other hook tied with thread to an isometric force displacement transducer. […] E/Emax was expressed as percentage of Emax elicited by the contractile agents; […] The analysis of the potential synergism between RPL554 plus muscarinic receptor antagonist was measured by applying the Berenbaum method, the Bliss Independence (BI) criterion and the Loewe Additivity (LA) model through curved isoboles (Berenbaum, 1977; Greco et al., 1995; Grabovsky and Tallarida, 2004; Tallarida, 2006; Goldoni and Johansson, 2007; Tallarida and Raffa, 2010). […] The additive response (Eab) for each dose combination with respect to B was then calculated by insertion of B into EB=f(B). The difference between the observed relaxation response to the combination doses and the additive response was calculated and analysed using a one sample t-test and for multiple comparisons, the probability was adjusted for multiple comparisons using a Bonferroni correction. For illustrative purposes, the 1:1 dose combinations were analysed for synergy. […]

| SMILES | slope (nH) |
| --- | --- |
| COc1cc2c(cc1OC)-c1cc(=Nc3c(C)cc(C)cc3C)n(CCNC(N)=O)c(=O)n1CC2 [RPL554, 9,10-Dimethoxy-2-(2,4,6-trimethylphenylimino)-3-(N-carbamoyl-2-aminoethyl)-3,4,6,7-tetrahydro-2H-pyrimido[6,1-a]isoquinolin-4-one] | 2.271±0.713 |
| CN1[C@@H]2CC[C@H]1C[C@@H](OC(=O)C(CO)c1ccccc1)C2 (some centres unmarked) [atropine, reference compound] | 0.912±0.488 |
